Test results taken from the supplement of paper PMC12823440, “Inhibitors supercharge kinase turnover through native proteolytic circuits” (Nature, 2025).
Structures can show the parent of a compound that is named as a salt. The list shows a part of the results. The calls rarely recur for the same compound in another form.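 In K562 cells expressing nanoluciferase-fused kinases, luminescence was recorded at 4 h intervals between 2 and 18 h, normalized as percent of control with DMSO at 100% and a positive control at 0%. A significant (2 sigma) signal drop marks a time point as decreased. The authors' rule for a hit is not shown and takes in more than the number of time points.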

Target: EGFR_L718V (UniProt P00533)
Test: number of time points (of 5) at which kinase-Nluc abundance scored as decreased, DMSO-normalised (count); higher = more persistent destabilization
Details: K562; 2-18 h

| SMILES | number of time points |
| --- | --- |
| Cn1cnc2c(F)c(Nc3ccc(Br)cc3Cl)c(C(=O)NOCCO)cc21 [Selumetinib (sulfate)] (10 µM) | 0 |
| COc1ncc(Cl)cc1S(=O)(=O)Nc1ccc(F)c(C#Cc2cnc(N)nc2)c1F (2.5 µM) | 0 |
| CNC(=O)c1cc(COc2nnc(Nc3ccc(Cl)cc3)c3ccoc23)ccn1 [Telatinib] (10 µM) | 0 |
| CC(C)(C)c1cc(O)ccc1O (10 µM) | 0 |
| Cn1cnc2c(F)c(Nc3ccc(Br)cc3Cl)c(C(=O)NOCCO)cc21 [Selumetinib] (10 µM) | 0 |
| Cc1c(-c2c(F)cc(C(N)=O)c3[nH]c4c(c23)CC[C@H](C(C)(C)O)C4)cccc1-n1c(=O)c2cccc(F)c2n(C)c1=O (2.5 µM) | 0 |
| O=C(CSC1=NCCN1)NC1CCCCCC1 [ICCB-19 (hydrochloride)] (2.5 µM) | 0 |
| Cn1cc(-c2ccc3nnc(Sc4ccc5ncccc5c4)n3n2)cn1 (10 µM) | 0 |
| Cc1ccccc1-c1c2nccc(-c3ccc(F)cc3F)c2cc[n+]1[O-] (10 µM) | 0 |
| Cn1nccc1Nc1nccc(-c2ccn([C@H](CO)c3ccc(Cl)c(F)c3)c(=O)c2)n1 [Ravoxertinib hydrochloride] (10 µM) | 0 |
| OCCn1cc(-c2ccc3c(c2)CC/C3=N\O)c(-c2ccncc2)n1 (10 µM) | 0 |
| NC(=O)c1nnc(N[C@@H]2CCCC[C@@H]2N)nc1Nc1cccc2cc[nH]c12 (10 µM) | 0 |
| O=C(NOCC(O)CO)c1cc(Br)c(F)c(F)c1Nc1ccc(I)cc1F (stereo not given) (2.5 µM) | 0 |
| CN(C)CCSSCCNC(=O)C1CCN(C(=O)CSc2ccc(Cl)cc2)CC1 (10 µM) | 0 |
| CCC(C)N1c2ccccc2C(=O)N(C)c2cnc(Nc3ccc(C(=O)N4CCC(N5CCN(C)CC5)CC4)cc3OC)nc21 (stereo not given) (2.5 µM) | 0 |
| CN(C)CCCOc1ccc(-c2ccc3ncc4c(c3c2)n(C2CCOCC2)c(=O)n4C)cn1 (2 µM) | 0 |
| COc1ccc(-c2ccc3c(N4CCOCC4)nc(N4C[C@@H](C)O[C@@H](C)C4)nc3n2)cc1CO (2.5 µM) | 0 |
| CC#CC(=O)N1CC[C@@H](n2c(=O)n(-c3ccc(Oc4ccccc4)cc3)c3c(N)ncnc32)C1 [Tirabrutinib (hydrochloride)] (10 µM) | 0 |

| SMILES | number of time points |
| --- | --- |
| NC(=O)c1ccc(-c2nc(-c3ccc4c(c3)OCCO4)c(-c3ccccn3)[nH]2)cc1 (10 µM) | 0 |
| FC(F)(F)c1ccc(CNc2ccc(Cc3c[nH]c4ncccc34)cn2)cc1 (10 µM) | 0 |
| COc1ccc(Cl)c(Nc2nc3ccccc3nc2NS(=O)(=O)c2cccc(NC(=O)C(C)(C)N)c2)c1 [Pilaralisib] (10 µM) | 0 |
| Oc1ccc(Nc2nc(-c3ccc(Cl)cc3)cs2)cc1 (10 µM) | 0 |
| Cc1nc(-c2cn3c(n2)-c2ccc(-c4cnn(C(C)(C)C(N)=O)c4)cc2OCC3)n(C(C)C)n1 [Taselisib] (10 µM) | 0 |
| COc1cccc(OC)c1C(=O)OCc1cc(O)ccc1O[C@@H]1O[C@H](CO)[C@@H](O)[C@H](O)[C@H]1O [Curculigoside] (10 µM) | 0 |
| CCc1cc2c(cc1N1CCC(N3CCOCC3)CC1)C(C)(C)c1[nH]c3cc(C#N)ccc3c1C2=O [Alectinib] (10 µM) | 0 |
| O=C(O)CCC(=O)Nc1ccc(Br)cn1 [Bikinin] (10 µM) | 0 |
| COc1cc(Nc2ncc(F)c(Nc3ccc4c(n3)N(COP(=O)(O)O)C(=O)C(C)(C)O4)n2)cc(OC)c1OC [Fostamatinib (disodium hexahydrate)] (10 µM) | 0 |
| Nc1cc(C(F)(F)F)c(-c2cc(N3CCOCC3)nc(N3CCOCC3)n2)cn1 [Buparlisib (Hydrochloride)] (2.5 µM) | 0 |
| O=C(NCCN1CCCC1)c1cc(-c2ccc(CN3CCOCC3)cc2)nc2ccc(F)cc12 (10 µM) | 0 |
| Cc1ccc(C(=O)Nc2ccc(Oc3cc4cnn(C)c4cc3-c3cn[nH]c3)c(F)c2)c(=O)n1-c1ccc(F)cc1 [Merestinib] (2.5 µM) | 0 |
| NS(=O)(=O)c1ccc(-n2nc(C(F)(F)F)cc2-c2ccc(Cl)cc2)cc1 (10 µM) | 0 |
| CN1CCN(c2cnc3c(C4CCN(C(=O)c5ccc(OC(F)(F)F)cc5N)CC4)ncnc3c2)CC1 (10 µM) | 0 |
| COc1ccc2c(OCc3nnc4ccc(-c5ccccc5)nn34)ccnc2c1 (2 µM) | 0 |
| NC(=O)c1ccc2[nH]ccc2c1 (10 µM) | 0 |
| CNc1nc(Nc2ccc(C(=O)N3CCOCC3)cc2OC)nc2[nH]cc(Cl)c12 (2.5 µM) | 0 |

Target: EGFR_L858R (UniProt P00533)
Test: as above
Details: K562; 2-18 h

| SMILES | number of time points |
| --- | --- |
| Cn1cnc2c(F)c(Nc3ccc(Br)cc3Cl)c(C(=O)NOCCO)cc21 [Selumetinib (sulfate)] (10 µM) | 0 |
| COc1ncc(Cl)cc1S(=O)(=O)Nc1ccc(F)c(C#Cc2cnc(N)nc2)c1F (2.5 µM) | 0 |
| CNC(=O)c1cc(COc2nnc(Nc3ccc(Cl)cc3)c3ccoc23)ccn1 [Telatinib] (10 µM) | 0 |
| CC(C)(C)c1cc(O)ccc1O (10 µM) | 0 |
| Cn1cnc2c(F)c(Nc3ccc(Br)cc3Cl)c(C(=O)NOCCO)cc21 [Selumetinib] (10 µM) | 0 |
| Cc1c(-c2c(F)cc(C(N)=O)c3[nH]c4c(c23)CC[C@H](C(C)(C)O)C4)cccc1-n1c(=O)c2cccc(F)c2n(C)c1=O (2.5 µM) | 0 |
| O=C(CSC1=NCCN1)NC1CCCCCC1 [ICCB-19 (hydrochloride)] (2.5 µM) | 0 |
| Cn1cc(-c2ccc3nnc(Sc4ccc5ncccc5c4)n3n2)cn1 (10 µM) | 0 |
| Cc1ccccc1-c1c2nccc(-c3ccc(F)cc3F)c2cc[n+]1[O-] (10 µM) | 0 |
| Cn1nccc1Nc1nccc(-c2ccn([C@H](CO)c3ccc(Cl)c(F)c3)c(=O)c2)n1 [Ravoxertinib hydrochloride] (10 µM) | 0 |
| OCCn1cc(-c2ccc3c(c2)CC/C3=N\O)c(-c2ccncc2)n1 (10 µM) | 0 |
| NC(=O)c1nnc(N[C@@H]2CCCC[C@@H]2N)nc1Nc1cccc2cc[nH]c12 (10 µM) | 0 |
| O=C(NOCC(O)CO)c1cc(Br)c(F)c(F)c1Nc1ccc(I)cc1F (stereo not given) (2.5 µM) | 0 |
| CN(C)CCSSCCNC(=O)C1CCN(C(=O)CSc2ccc(Cl)cc2)CC1 (10 µM) | 0 |
| CCC(C)N1c2ccccc2C(=O)N(C)c2cnc(Nc3ccc(C(=O)N4CCC(N5CCN(C)CC5)CC4)cc3OC)nc21 (stereo not given) (2.5 µM) | 0 |
| CN(C)CCCOc1ccc(-c2ccc3ncc4c(c3c2)n(C2CCOCC2)c(=O)n4C)cn1 (2 µM) | 0 |
| COc1ccc(-c2ccc3c(N4CCOCC4)nc(N4C[C@@H](C)O[C@@H](C)C4)nc3n2)cc1CO (2.5 µM) | 0 |
| CC#CC(=O)N1CC[C@@H](n2c(=O)n(-c3ccc(Oc4ccccc4)cc3)c3c(N)ncnc32)C1 [Tirabrutinib (hydrochloride)] (10 µM) | 0 |

| SMILES | number of time points |
| --- | --- |
| NC(=O)c1ccc(-c2nc(-c3ccc4c(c3)OCCO4)c(-c3ccccn3)[nH]2)cc1 (10 µM) | 0 |
| FC(F)(F)c1ccc(CNc2ccc(Cc3c[nH]c4ncccc34)cn2)cc1 (10 µM) | 0 |
| COc1ccc(Cl)c(Nc2nc3ccccc3nc2NS(=O)(=O)c2cccc(NC(=O)C(C)(C)N)c2)c1 [Pilaralisib] (10 µM) | 0 |
| Oc1ccc(Nc2nc(-c3ccc(Cl)cc3)cs2)cc1 (10 µM) | 0 |
| Cc1nc(-c2cn3c(n2)-c2ccc(-c4cnn(C(C)(C)C(N)=O)c4)cc2OCC3)n(C(C)C)n1 [Taselisib] (10 µM) | 0 |
| COc1cccc(OC)c1C(=O)OCc1cc(O)ccc1O[C@@H]1O[C@H](CO)[C@@H](O)[C@H](O)[C@H]1O [Curculigoside] (10 µM) | 0 |
| CCc1cc2c(cc1N1CCC(N3CCOCC3)CC1)C(C)(C)c1[nH]c3cc(C#N)ccc3c1C2=O [Alectinib] (10 µM) | 0 |
| O=C(O)CCC(=O)Nc1ccc(Br)cn1 [Bikinin] (10 µM) | 0 |
| COc1cc(Nc2ncc(F)c(Nc3ccc4c(n3)N(COP(=O)(O)O)C(=O)C(C)(C)O4)n2)cc(OC)c1OC [Fostamatinib (disodium hexahydrate)] (10 µM) | 0 |
| Nc1cc(C(F)(F)F)c(-c2cc(N3CCOCC3)nc(N3CCOCC3)n2)cn1 [Buparlisib (Hydrochloride)] (2.5 µM) | 0 |
| O=C(NCCN1CCCC1)c1cc(-c2ccc(CN3CCOCC3)cc2)nc2ccc(F)cc12 (10 µM) | 0 |
| Cc1ccc(C(=O)Nc2ccc(Oc3cc4cnn(C)c4cc3-c3cn[nH]c3)c(F)c2)c(=O)n1-c1ccc(F)cc1 [Merestinib] (2.5 µM) | 0 |
| NS(=O)(=O)c1ccc(-n2nc(C(F)(F)F)cc2-c2ccc(Cl)cc2)cc1 (10 µM) | 0 |
| CN1CCN(c2cnc3c(C4CCN(C(=O)c5ccc(OC(F)(F)F)cc5N)CC4)ncnc3c2)CC1 (10 µM) | 0 |
| COc1ccc2c(OCc3nnc4ccc(-c5ccccc5)nn34)ccnc2c1 (2 µM) | 0 |
| NC(=O)c1ccc2[nH]ccc2c1 (10 µM) | 0 |
| CNc1nc(Nc2ccc(C(=O)N3CCOCC3)cc2OC)nc2[nH]cc(Cl)c12 (2.5 µM) | 0 |
